Measurements reported in US20090325869A1 (CHILDREN S HOSPITAL AND RESEARCH CENTER OAKLAND, published 2009).
Changes are numbered by the printed parent chain. Results are given in words; binding and its absence hold for the method and conditions named. Some results given as binding are weak or reduced against the parent protein; the word gives no strength.

Key:
[1] = molecular target: T1, Ferritin H (frog), wild type, protein nanocage (frog) (UniProt P07229); test: phage display selection on ferritin H (frog) as adsorbant
T1 sequence (looked up): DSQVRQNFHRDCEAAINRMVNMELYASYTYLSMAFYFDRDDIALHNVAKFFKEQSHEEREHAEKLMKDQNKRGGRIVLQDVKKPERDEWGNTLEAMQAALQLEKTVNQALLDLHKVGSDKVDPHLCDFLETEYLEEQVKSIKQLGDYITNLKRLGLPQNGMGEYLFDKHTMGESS

[2] = molecular target: T2, Ferritin H-L134P (frog), pore gate mutant with unfolded pores (frog) (UniProt P07229); test: phage display, elution from ferritin H with ferritin H-L134P (peptide group A)
T2 sequence (looked up): T1 sequence (looked up) with L134P

[3] = molecular target: T1, Ferritin H (frog), wild type, protein nanocage (frog); test: phage display, elution with ferritin H (peptide group B)
[4] = molecular target: T1, Ferritin H (frog), wild type, protein nanocage (frog); test: synthetic undecapeptide mixed with mineralized ferritin before demineralization

Binder: NTYYFPK [Pep1 (heptapeptide) NTYYFPK, phage-displayed]
- binding [1]: binds
- binding [2]: binds

Binder: SHTSPSI [Peptide 2 (heptapeptide) SHTSPSI, phage-displayed]
- binding [1]: binds
- binding [2]: binds

Binder: GDWYLGD [Peptide 3 (heptapeptide) GDWYLGD, phage-displayed]
- binding [3]: binds

Binder: HHALDGS [Pep4 (heptapeptide) HHALDGS, phage-displayed]
- binding [3]: binds

Binder: HHALGGS [Peptide 5 (heptapeptide) HHALGGS, phage-displayed]
- binding [3]: binds

Binder: HSNTYYFPKGG [Peptide 1, synthetic undecapeptide HSNTYYFPKGG]
- binding [4]: binds
